About 310 (0.076%) of roughly 410,000 compounds were called active. The shares of active, inactive and inconclusive entries below differ from those in the screen. Calls come from the whole dose curve; as a rule, active = well fitted activation curve with a large enough effect; inconclusive = small, poorly fitted or top-dose-only effect, or another doubt; inactive = no such curve, though single readings can be large or run the other way. Potencies beside an inconclusive call are fits to weak or partial responses and may not hold up.
molecular target: Parathyroid hormone/parathyroid hormone-related peptide receptor (Homo sapiens) (UniProt Q03431); test: qHTS for PTHR1 Agonists: Primary Screen; settings: HEK293 GP2 PTHR1 cells, GloSensor cAMP luminescence, 1 h; activation: at 115 µM (top of the series) unless noted; series mostly up to 115 µM; note: nearly all actives have a fitted effect of over 55% in size
How it was run: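 HEK-293-derived GP2 cells expressing PTHR1 and a GloSensor cAMP reporter, 3,000/well, plated overnight, given luciferin plus IBMX (each 0.5 mM as added) for 1 h at 37 °C, then compound for 1 h at 37 °C. Luminescence was read after 15 min at room temperature.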
Potency is the fitted concentration of half-maximal effect.

Chains of the proteins cited; added tags and fusions are not shown.
UniProt Q03431, whole entry, looked up: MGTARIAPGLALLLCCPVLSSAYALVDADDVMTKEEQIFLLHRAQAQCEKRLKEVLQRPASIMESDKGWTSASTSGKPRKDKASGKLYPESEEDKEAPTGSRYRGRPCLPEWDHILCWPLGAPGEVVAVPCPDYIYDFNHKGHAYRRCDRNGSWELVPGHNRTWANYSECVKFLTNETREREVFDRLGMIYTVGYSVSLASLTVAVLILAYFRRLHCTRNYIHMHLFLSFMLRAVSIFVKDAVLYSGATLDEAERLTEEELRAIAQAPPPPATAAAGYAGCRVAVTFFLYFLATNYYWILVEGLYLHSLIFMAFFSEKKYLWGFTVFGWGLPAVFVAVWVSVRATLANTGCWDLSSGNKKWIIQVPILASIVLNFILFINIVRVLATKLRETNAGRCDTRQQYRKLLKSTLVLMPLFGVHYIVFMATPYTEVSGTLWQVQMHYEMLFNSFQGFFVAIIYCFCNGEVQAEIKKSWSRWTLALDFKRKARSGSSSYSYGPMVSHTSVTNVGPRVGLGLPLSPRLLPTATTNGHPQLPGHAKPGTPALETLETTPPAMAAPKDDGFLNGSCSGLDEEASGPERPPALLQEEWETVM

Structure (SMILES)	activation	outcome	Potency
CCOC(=O)c1c(NC(=O)Cc2cccs2)sc(C(=O)NC2CCCCC2)c1C	inactive: -8.16% [at 57.5 µM]		
O=C(c1ccccc1Br)N(Cc1ccccc1)c1ccccc1	inactive: -19.4%		
Cc1ccc(O)c(CN(C)Cc2cc(C)ccc2O)c1		inactive	
CC1(c2ccccc2)CC(c2ccccc2)=Nc2nonc2N1 (stereo not given)			inconclusive: 35.5 µM [activator, partial curve, poor fit]
Cc1ccc(-c2csc(=S)[nH]2)cc1		inactive	
O=C(CCNC(=O)Cn1ccc2ccccc2c1=O)NCCCN1CCN(c2ccc(F)cc2)CC1	inactive: -12.1% [at 57.5 µM]		
Cc1ccc(OCCCCN2CCc3ccccc3C2)c(C)c1			inconclusive: 44.7 µM [activator, partial curve, poor fit]
CCCCN=C1SC(C(=O)Nc2sc3c(c2C(=O)OC)CCC3)C(N)=C1C(=O)N1CCOCC1 (stereo not given)	inconclusive: 31.9% [activator]		
CC(=O)Nc1c(C)nn(-c2ccccc2)c1N1CCC(C(=O)Nc2ccc(Cl)cc2C)CC1			inconclusive: 50.1 µM [activator, partial curve, poor fit]
Cc1ccc(Cn2c(=O)c3ccccc3n3c(CCC(=O)O)nnc23)cc1			inconclusive: 79.4 µM [activator, partial curve, poor fit]
Cc1cn([C@H]2C[C@H](O)[C@@H](COS(=O)(=O)O)O2)c(=O)[nH]c1=O			inconclusive: 126 µM [activator, single point]
CCOc1ccc(NC(=O)CC2C(=O)N(c3ccccc3)C(=O)N2Cc2ccccn2)cc1 (stereo not given)			inconclusive: 1.58 µM [activator, partial curve, poor fit]
CCc1nn(CC(=O)N2CCN(CC)CC2)c(=O)c2cc3sccc3n12	inactive: 15.5%		
CCCN(C(=O)c1c(-c2ccccc2)noc1C)c1c(N)n(Cc2ccccc2)c(=O)[nH]c1=O	inconclusive: 38.8% [activator]		
CC(=O)N1CCc2c(sc3c2c(=O)n(-c2cc(Cl)ccc2C)c(=O)n3C)C1			inconclusive: 50.1 µM [activator, partial curve, poor fit]
Cc1ccc(NC(NC(=O)c2cccs2)C(Cl)(Cl)Cl)cc1C (stereo not given)	inactive: -8.24% [at 57.5 µM]		
Cc1cc(=O)oc(C)c1C(=O)OCC(=O)c1ccc(Cl)c(Cl)c1			inconclusive: 5.62 µM [activator, full curve, poor fit]
CN1CCc2c(n(CC(O)CNCc3ccccc3)c3ccccc23)C1=O (stereo not given)	inactive: -1.51%		
CCOc1ccc(-n2c(SCC(N)=O)nnc2-c2cccnc2)cc1			inconclusive: 141 µM [activator, single point]
COc1ccc2nc(NC(=O)c3nc(S(=O)(=O)Cc4ccc(C)cc4)ncc3Cl)sc2c1	inactive: -95.5%		
COc1cccc(CNC(=O)C2=C(C)C(=O)OC23CCCCCC3)c1			inconclusive: 89.1 µM [activator, partial curve, poor fit]
Cc1cc(C)c(Cn2cnc3nc4c(cc3c2=O)CCCC4)c(C)c1	inconclusive: 31.8% [activator]		
Cc1cnc(C(=O)OCC(=O)Nc2ccc(Cl)cc2)cn1			inconclusive: 112 µM [activator, single point]

Structure (SMILES)	activation	outcome	Potency
O=C(Nc1cccc(-c2cccc(F)c2)c1)C1CCN(Cc2ccc(CO)o2)CC1		inactive	
Oc1oc(-c2cccc3ccccc23)nc1/C=N/c1nccs1	inconclusive: 44.4% [activator]		
O=C(NCc1ccc(F)cc1)C(=O)NCC(c1cccs1)S(=O)(=O)c1cccs1 (stereo not given)		inactive	
Cc1c(C(=O)Nc2ccccc2F)cnn1-c1ccccc1	inactive: -20.2%		
NC1=NC(=O)/C(=C/c2cn(CCC(=O)O)nc2-c2ccc(Cl)cc2)S1			inconclusive: 112 µM [activator, partial curve, poor fit]
CN(C1=C(NC(=O)c2ccc(Cl)cc2)C(=O)c2ccccc2C1=O)c1ccccc1	inactive: -59.2%		
CCN(Cc1ccncc1)C(=O)CC1C(=O)NCCN1Cc1ccc(F)c(F)c1 (stereo not given)			inconclusive: 22.4 µM [activator, partial curve]
CCN(CC(=O)Nc1ccc(NC(C)=O)cc1)C(=O)c1cccc(N2C(=O)c3ccccc3C2=O)c1	inactive: -8.37%		
CCCCN(C(=O)C1CCN(C(=O)c2ccccc2C)CC1)c1c(N)n(CC(C)C)c(=O)[nH]c1=O			inconclusive: 100 µM [activator, single point]
O=C(Nc1ccc2c(c1)OCO2)c1csc([C@@H]2O[C@H](CO)[C@H](O)[C@H](O)[C@H]2O)n1	inactive: -0.227%		
O=C(COCc1cc(-c2cccs2)on1)Nc1cccc(O)c1			inconclusive: 5.62 µM [activator, full curve, poor fit]
Cn1c(CC(=O)Nc2ccccc2F)nnc1SCC(=O)N1CCOCC1		inactive	
Cc1cc(NC(=O)c2ccc([N+](=O)[O-])cc2Cl)ccc1NC(=O)c1ccco1	inactive: -12.6%		
CCCN1C(=O)/C(=c2\sc3nc(=O)c(Cc4ccc(C)cc4)nn3c2=O)c2ccccc21			inconclusive: 39.8 µM [activator, partial curve, poor fit]
COc1cccc(CC(=O)Nc2ccc3c(c2)OC2(CCCC2)O3)c1	inconclusive: 40.3% [activator]		
CC(=O)OCC1=C(C(=O)O)N2C(=O)C(NC(=O)CC(C)c3ccccc3)C2SC1 (stereo not given)			inconclusive: 126 µM [activator, single point]
COc1ccc2cc(C3c4cc(OC)c(OC)cc4CCN3C(=O)c3ccco3)c(=O)[nH]c2c1 (stereo not given)			inconclusive: 17.8 µM [activator, partial curve]
CCC1CN(C(=O)Nc2cc(OC)cc(OC)c2)c2ccccc2S1 (stereo not given)			inconclusive: 50.1 µM [activator, partial curve, poor fit]
CS/C(N)=N/N=C/c1cc(C)ccc1O	inactive: -26.2%		
COc1ccc(OC)c(NC(=O)c2nc(SCc3ccccc3F)ncc2Cl)c1			inconclusive: 112 µM [activator, single point]
COc1ccccc1Cc1c(C2CCCCC2)nc2c3ccccc3ccn12			inconclusive: 50.1 µM [activator, partial curve, poor fit]
CCCc1cc(=O)[nH]c2nnc(SCC(=O)Nc3cccc(C)c3)n12			inconclusive: 50.1 µM [activator, partial curve, poor fit]

Given bar-delimited: 2 of the compounds above
Structure (SMILES) | activation | outcome | Potency
COc1ccc(OC)c(NC(=O)c2nc(SCc3ccccc3F)ncc2Cl)c1 |  |  | inconclusive: 112 µM [activator, single point]
CCCc1cc(=O)[nH]c2nnc(SCC(=O)Nc3cccc(C)c3)n12 |  |  | inconclusive: 50.1 µM [activator, partial curve, poor fit]

Source: PubChem BioAssay AID743266 (National Center for Advancing Translational Sciences (NCATS), 2014)
